{
  "sequences": {"note": "The chains behind the UniProt entries cited, without tags or fusion partners. Where a name states a change or a piece, a line headed by the entry shows the natural chain unless it says otherwise.", "UniProt O00571": "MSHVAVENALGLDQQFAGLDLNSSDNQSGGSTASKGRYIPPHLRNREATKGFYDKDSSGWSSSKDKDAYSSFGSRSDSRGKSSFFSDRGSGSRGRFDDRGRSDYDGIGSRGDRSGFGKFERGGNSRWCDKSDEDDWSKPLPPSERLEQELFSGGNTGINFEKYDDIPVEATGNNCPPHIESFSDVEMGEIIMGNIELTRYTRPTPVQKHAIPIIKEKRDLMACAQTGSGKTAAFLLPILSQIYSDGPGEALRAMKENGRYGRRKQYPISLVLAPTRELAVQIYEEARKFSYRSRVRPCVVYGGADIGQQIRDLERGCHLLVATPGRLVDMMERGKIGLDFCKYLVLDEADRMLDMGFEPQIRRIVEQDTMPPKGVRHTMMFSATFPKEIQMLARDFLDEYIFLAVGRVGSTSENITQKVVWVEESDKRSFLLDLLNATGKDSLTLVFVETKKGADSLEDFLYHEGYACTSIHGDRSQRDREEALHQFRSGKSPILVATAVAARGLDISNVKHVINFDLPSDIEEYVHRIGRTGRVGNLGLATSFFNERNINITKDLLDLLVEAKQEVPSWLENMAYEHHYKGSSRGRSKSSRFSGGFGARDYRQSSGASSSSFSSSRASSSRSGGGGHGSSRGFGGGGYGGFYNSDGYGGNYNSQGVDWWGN"},
  "source": "paper PMC8611094",
  "biological_target": "DDX3X (UniProt O00571)",
  "test": "ELISA",
  "settings": "minimal binding to the mutated G4; ELISA performed as in Zyner et al. (ref 43); commercial protein; protein details: FLAG; label: 5' biotin",
  "note": "The exact form of at least one protein or probe is not confirmed. Weaker means in comparison with the reference protein, sequence or condition of that experiment.",
  "data": [
    {"sequence": "UGUAGAAAGAGCAGAUCUAGAUGC [NRAS mG4]", "values": [
      {"measurement": "binding result", "result": "binds more weakly"}
    ]}
  ]
}
